# Publication PMC5133986
# Protein sequences, listed by entry. Tags and fused reporters are not part of them. Residues count along the entry.
# UniProt Q63604, residues 32-821: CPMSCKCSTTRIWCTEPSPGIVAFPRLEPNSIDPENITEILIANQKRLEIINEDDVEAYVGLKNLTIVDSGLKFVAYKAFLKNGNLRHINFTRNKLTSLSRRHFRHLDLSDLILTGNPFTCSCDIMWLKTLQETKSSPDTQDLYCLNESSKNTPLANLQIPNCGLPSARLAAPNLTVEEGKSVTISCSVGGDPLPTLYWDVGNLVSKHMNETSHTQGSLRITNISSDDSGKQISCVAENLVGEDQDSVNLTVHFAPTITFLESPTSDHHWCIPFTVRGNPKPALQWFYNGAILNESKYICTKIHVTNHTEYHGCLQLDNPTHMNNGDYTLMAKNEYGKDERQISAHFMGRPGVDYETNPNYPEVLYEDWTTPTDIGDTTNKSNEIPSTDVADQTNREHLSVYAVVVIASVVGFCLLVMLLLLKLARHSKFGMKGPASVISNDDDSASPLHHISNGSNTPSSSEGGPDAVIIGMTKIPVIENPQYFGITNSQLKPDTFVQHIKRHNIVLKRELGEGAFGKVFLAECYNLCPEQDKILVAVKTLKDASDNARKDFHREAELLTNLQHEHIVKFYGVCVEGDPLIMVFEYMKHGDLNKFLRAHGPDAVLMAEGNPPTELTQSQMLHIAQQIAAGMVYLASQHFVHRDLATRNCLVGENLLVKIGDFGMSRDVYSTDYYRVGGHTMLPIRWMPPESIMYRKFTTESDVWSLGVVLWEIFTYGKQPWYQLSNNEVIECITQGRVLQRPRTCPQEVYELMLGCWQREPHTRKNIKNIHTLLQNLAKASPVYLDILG
# UniProt Q9R0C9: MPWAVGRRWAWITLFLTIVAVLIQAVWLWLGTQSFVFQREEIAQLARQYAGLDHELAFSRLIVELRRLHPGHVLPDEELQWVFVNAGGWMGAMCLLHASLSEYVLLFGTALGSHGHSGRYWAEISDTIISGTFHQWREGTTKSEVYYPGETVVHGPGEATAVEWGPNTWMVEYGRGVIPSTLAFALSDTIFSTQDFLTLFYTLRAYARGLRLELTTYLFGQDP
# Results are given in words; binding and its absence hold for the method and conditions named. Binding seen in cells or lysates may run through a third protein. Some results given as binding are weak or reduced against the parent protein; the word gives no strength.
# Target: tropomyosin receptor kinase B (rat (endogenous in cultured E18 rat hippocampal neurons)) (UniProt Q63604)
# Test: co-IP; endogenous proteins; lysates of cultured hippocampal neurons treated with saline or cocaine (10 uM); 600 ug protein incubated with a Sig-1 R or TrkB antibody overnight at 4 °C, protein A/G beads 1.5 h at 4 °C; western blotting with a Sig-1 R or TrkB antibody
substance,measurement,value
sigma-1 receptor (from UniProt Q9R0C9 1-223),binding,binds
